Assay: Solubility of rapamycin in solvents and solvent combination
Details: IPA 15.00 wt %, PEG 400 60.00 wt %, DIA 15.00 wt %, glycerol 10.00 wt %

Rapamycin solubility in solvent system (maximum rapamycin solubility in combined solvents): 4.97 wt %
SMILES: CO[C@H]1C[C@@H]2CC[C@@H](C)[C@@](O)(O2)C(=O)C(=O)N2CCCC[C@H]2C(=O)O[C@H]([C@H](C)C[C@@H]2CC[C@@H](O)[C@H](OC)C2)CC(=O)[C@H](C)/C=C(\C)[C@@H](O)[C@@H](OC)C(=O)[C@H](C)C[C@H](C)/C=C/C=C/C=C/1C [Rapamycin, rapamycin (sirolimus)]
